Data on four molecules can be found in patent US20130089513A1 (MEDEXGEN, published 2013).

For assay [1], the target named is T1, G-CSF receptor linked to Fc domain of human IgG (human) (UniProt Q99062).
T1 sequence (looked up): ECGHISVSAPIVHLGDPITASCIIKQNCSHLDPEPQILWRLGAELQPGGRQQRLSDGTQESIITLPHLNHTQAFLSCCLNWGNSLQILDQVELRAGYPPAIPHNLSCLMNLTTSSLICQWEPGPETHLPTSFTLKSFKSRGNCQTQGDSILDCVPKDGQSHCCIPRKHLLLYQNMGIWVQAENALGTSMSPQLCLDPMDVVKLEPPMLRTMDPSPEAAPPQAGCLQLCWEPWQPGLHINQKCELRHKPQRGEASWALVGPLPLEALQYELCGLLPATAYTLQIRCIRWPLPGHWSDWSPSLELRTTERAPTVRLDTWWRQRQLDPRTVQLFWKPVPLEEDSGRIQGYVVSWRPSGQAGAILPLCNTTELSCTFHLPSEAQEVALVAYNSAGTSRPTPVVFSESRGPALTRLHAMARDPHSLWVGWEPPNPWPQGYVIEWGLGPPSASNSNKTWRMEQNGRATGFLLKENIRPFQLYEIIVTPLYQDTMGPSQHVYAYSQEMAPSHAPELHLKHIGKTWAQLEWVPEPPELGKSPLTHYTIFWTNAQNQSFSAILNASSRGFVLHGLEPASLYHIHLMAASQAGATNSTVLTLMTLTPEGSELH
Description: ELISA on coated G-CSF receptor-Fc, done like the TPO ELISA. On the technique in general: In an ELISA, binding on a coated surface is turned into a signal by an enzyme label.

For assay [2], the target named is T1, G-CSF receptor linked to Fc domain of human IgG (human). The assay can be described thus: ELISA, coated G-CSF receptor-Fc.

Numbering of substitutions follows the chain as printed. Names and notes keep the numbering of the source. No constants are given. Whether binding was seen depends on the method and setting. Some binding calls cover weakened binding; strength is not graded here. Sequences can lack the tags named with a protein.

For the molecule “G-CSF-[F144V] (from UniProt P09919 31-207) (ligand)”, the binding result in assay [1] and in assay [2] was “binds” throughout.

B1: wild type G-CSF (ligand)
chain: TPLGPASSLPQSFLLKCLEQVRKIQGDGAALQEKLCATYKLCHPEELVLLGHSLGIPWAPLSSCPSQALQLAGCLSQLHSGLFLYQGLLQALEGISPELGPTLDTLQLDVADFATTIWQQMEELGMAPALQPTQGAMPAFASAFQRRAGGVLVASHLQSFLEVSYRVLRHLAQP
notes: cDNA from leukocytes of healthy people; expressed in CHO-K1 cells; also called G-CSF wild type
As for B1, the binding entry in assay [1] and in assay [2] was “binds” throughout.

B2: G-CSF-[F140V] (ligand)
chain: B1 chain with F140V
notes: G-CSF mutein expressed in CHO-K1 cells; also called G-CSF-[F140VD]
With B2, the binding entry in assay [1] and in assay [2] was “binds” throughout.

B3: G-CSF-[F160V] (ligand)
chain: B1 chain with F160V
notes: G-CSF mutein expressed in CHO-K1 cells
Consider B3, for which the binding entry in assay [1] and in assay [2] was “binds” each time.
